Test: peptide synthesis
Conditions: whole synthesis, identity by MS

K(LSLLSLC)KKK(LSLLSLC)
final HPLC purity: 97%

From patent publication US20250332275A1 (SUZHOU HEALIRNA BIOTECHNOLOGY CO., LTD., priority 2022, published 2025)
